# Literature values in patent publication US20230321017A1, “ACIDIC CANNABINOIDS AND USES THEREOF FOR ENHANCING FEMALE SEXUAL FUNCTION OR TREATING FEMALE SEXUAL DISORDERS” (Vella Bioscience, Inc., priority 2022, published 2023).
# The name of at least one read-out is uncertain.
# Conditions: background statement; cited from earlier work
smiles,measurement,value
"C=C(C)[C@@H]1CCC(C)=C[C@H]1c1c(O)cc(CCCCC)c(C(=O)O)c1O [CBDA, (1′R,2′R)-2,6-dihydroxy-5′-methyl-4-pentyl-2′-(prop-1-en-2-yl)-1′,2′,3′,4′-tetrahydro[1,1′-biphenyl]-3-carboxylic acid]",oral bioavailability relative to CBD,substantially higher
